Experimental data from the supplement of paper PMC7877785.
± gives the uncertainty stated by the source. Many of these values have a large error.

Assay: self-splicing fitness, log relative to wild type (ln ratio); higher = more splicing; Tetrahymena group I intron in knt gene, E. coli kanamycin selection, DiMSum; sequences stand for … in CUCUCU…GGAGGGAAAAGUUAUCAGGCAUGCACCUGGUAGCUAGUCUUUAAACCAAUAGAUUGCAUCGGUUUAAAAGGCAAGACCGUCAAAUUGCGGGAAAGGGGUCAACAGCCGUUCAGUACCAAGUCUCAGGGGAAACUUUGAGAUGGCCUUGCAAAGGGUAUGGUAAUAAGCUGACGGACAUGGUCCUAACCACGCAGCCAAGUCCUAAGUCAACAGAUCUUCUGUUGAUAUGGAUGCAGUUCACAGACUAAAUGUCGGUCGGGGAAGAUGUAUUCUUCUCAUAAGAUAUAGUCGGACCUCUCCUUAAUGGGAGCUAGCGGAUGAAGUGAUGCAACACUGGAGCCGCUGGGAACUAAUUUGUAUGCGAAAGUAUAUUGAUUAGUUUUGGAGUACUCGUGGUCG
How it was run: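 Pooled colonies went to amplicon sequencing on an Illumina HiSeq 2500 after six replicate transformations. The plates were LB agar with 100 μg/mL carbenicillin, 50 μM IPTG and 0.2% rhamnose, with or without 25 μg/mL kanamycin, incubated overnight at 37°C or 30°C. The E. coli BL21(DE3) library had all eight P1ex-region intron nucleotides randomised, the intron placed in the knt kanamycin-resistance gene on pET-22b(+). DiMSum fitness is the error-weighted combination of replicate fold changes, kanamycin against none, normalised to wild type.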

| Sequence | self-splicing fitness (ln) (30 °C) | self-splicing fitness (ln) (37 °C) |
| --- | --- | --- |
| CUGGAGCAAUAUUACGCCUC | -2.41 ± 0.66 | – |
| AGAGAGCAAUAUUACGAAUC | -3.68 ± 0.47 | -2.06 ± 0.37 |
| CAUUAGCAAUAUUACGUUAU | -4.44 ± 0.74 | – |
| UGCUAGCAAUAUUACGCAGG | -2.73 ± 0.76 | -2.78 ± 0.75 |
| ACGGAGCAAUAUUACGAGAA | -3.26 ± 1 | -2.73 ± 0.54 |
| GGGCAGCAAUAUUACGGCCU | -4.59 ± 0.72 | -2.22 ± 0.55 |
| GGUGAGCAAUAUUACGCCCU | – | -1.75 ± 0.67 |
| UGCGAGCAAUAUUACGGAAC | -3.98 ± 0.72 | – |
| AUGUAGCAAUAUUACGUGUC | -3.79 ± 0.31 | -2.81 ± 0.26 |
| UGAGAGCAAUAUUACGCCAU | -2.66 ± 0.51 | – |
| CCGUAGCAAUAUUACGCACC | -5.17 ± 1 | -2.21 ± 0.37 |
| AUGGAGCAAUAUUACGAAAU | – | -2.87 ± 0.61 |
| GAAGAGCAAUAUUACGCCCG | – | -0.756 ± 0.61 |
| GUAGAGCAAUAUUACGACUG | -1.22 ± 0.15 | -1.12 ± 0.24 |
| GACGAGCAAUAUUACGCCAU | – | -2.19 ± 0.55 |
| CUAGAGCAAUAUUACGCUAU | -4.4 ± 0.74 | – |
| GAGAAGCAAUAUUACGAAAC | -2.29 ± 0.36 | -1.71 ± 0.48 |
| UAGUAGCAAUAUUACGUAUC | -4.73 ± 1 | -2.76 ± 1.1 |
| CCGGAGCAAUAUUACGGUUC | -3.44 ± 0.6 | -1.02 ± 0.59 |
| CCACAGCAAUAUUACGUACC | -3.7 ± 0.78 | -0.735 ± 0.5 |
| CACAAGCAAUAUUACGAAAC | -3.83 ± 0.51 | – |

Eight consecutive records already listed, quoted:

| Sequence | self-splicing fitness (ln) (30 °C) | self-splicing fitness (ln) (37 °C) |
| --- | --- | --- |
| CUGGAGCAAUAUUACGCCUC | -2.41 ± 0.66 | – |
| AGAGAGCAAUAUUACGAAUC | -3.68 ± 0.47 | -2.06 ± 0.37 |
| CAUUAGCAAUAUUACGUUAU | -4.44 ± 0.74 | – |
| UGCUAGCAAUAUUACGCAGG | -2.73 ± 0.76 | -2.78 ± 0.75 |
| ACGGAGCAAUAUUACGAGAA | -3.26 ± 1 | -2.73 ± 0.54 |
| GGGCAGCAAUAUUACGGCCU | -4.59 ± 0.72 | -2.22 ± 0.55 |
| GGUGAGCAAUAUUACGCCCU | – | -1.75 ± 0.67 |
| UGCGAGCAAUAUUACGGAAC | -3.98 ± 0.72 | – |

(continued)

| Sequence | self-splicing fitness (ln) (30 °C) | self-splicing fitness (ln) (37 °C) |
| --- | --- | --- |
| UCAUAGCAAUAUUACGCGAC | -3.39 ± 0.54 | – |
| UUCUAGCAAUAUUACGUGCC | – | -2.63 ± 1.1 |
| UCAAAGCAAUAUUACGAUCC | -3.21 ± 0.3 | -2.34 ± 0.4 |
| GAUUAGCAAUAUUACGCCCG | – | -0.635 ± 0.57 |
| UUGGAGCAAUAUUACGGGUG | -4.52 ± 0.59 | – |
| CUGCAGCAAUAUUACGCACC | -2.53 ± 0.77 | -0.458 ± 0.68 |
| CGCGAGCAAUAUUACGUCAA | – | -2.31 ± 0.5 |
| GGGAAGCAAUAUUACGUGCC | -3.42 ± 0.53 | – |
| UUUUAGCAAUAUUACGCCAC | -2.62 ± 0.87 | -0.504 ± 0.71 |
| CUUGAGCAAUAUUACGACUA | – | -1.43 ± 0.61 |
| GCGAAGCAAUAUUACGUUGC | -3.67 ± 0.52 | – |
| GCACAGCAAUAUUACGAUAU | -0.993 ± 0.056 | -0.54 ± 0.071 |
| GCAUAGCAAUAUUACGCCAC | – | -2.94 ± 0.53 |
| GAAGAGCAAUAUUACGCAUC | -3.6 ± 0.75 | -1.49 ± 0.56 |
| CCAGAGCAAUAUUACGGGAA | -2.99 ± 0.62 | – |
| CGGGAGCAAUAUUACGAUUC | -1.27 ± 1.4 | -1.39 ± 0.88 |
| AAUCAGCAAUAUUACGGUGA | -0.138 ± 0.076 | 0.345 ± 0.087 |
| UGCAAGCAAUAUUACGAAAC | -4.13 ± 0.51 | – |
| UGAUAGCAAUAUUACGUCCA | 0.015 ± 0.09 | 0.154 ± 0.12 |
| UGCCAGCAAUAUUACGAAAC | -4.09 ± 0.59 | – |
